# Values of other authors, collected in patent US20150174273A1, “IMAGING AND THERAPEUTIC METHODS FOR TREATING PARATHYROID TUMORS” (EMORY UNIVERSITY, priority 2012, published 2015).
# Tested on: human parathyroid tumors
# Settings: PT adenomas; cited from earlier work
smiles,measurement,value
[99Tc].[C-]#[N+]CC(C)(C)OC.[C-]#[N+]CC(C)(C)OC.[C-]#[N+]CC(C)(C)OC.[C-]#[N+]CC(C)(C)OC.[C-]#[N+]CC(C)(C)OC.[C-]#[N+]CC(C)(C)OC [^99mTc MIBI],share of adenomas visualized,70%-90
